According to US5770380A (priority 1996, dated 1998):

Assay: general procedure: peptide synthesis; oxime resin; DCC/SuOH (fragment couplings); TBTU/DMAP (cyclisation)

Substance	step yield (late stage modification step)	other results
cyclo-(Gly-Asp(OBut)-Gly-Asp(OBut)-3Am5ab)	100%	–
PEPTIDE1{G.D.G.D.[3Am5ab]}|PEPTIDE2{G.D.G.D.[3Am5ab]}|PEPTIDE3{G.D.G.D.[3Am5ab]}|PEPTIDE4{G.D.G.D.[3Am5ab]}|CHEM1{[BuOCalix4CO4]}$PEPTIDE1,PEPTIDE1,1:R1-5:R2|PEPTIDE2,PEPTIDE2,1:R1-5:R2|PEPTIDE3,PEPTIDE3,1:R1-5:R2|PEPTIDE4,PEPTIDE4,1:R1-5:R2|PEPTIDE1,CHEM1,5:R3-1:R1|PEPTIDE2,CHEM1,5:R3-1:R2|PEPTIDE3,CHEM1,5:R3-1:R3|PEPTIDE4,CHEM1,5:R3-1:R4$$$V2.0	90%	–
cyclo-(Gly-Asp(OBut)-Gly-Asp(OBut)-3Am5nb)	–	cyclisation yield (cyclisation step): 70%
cyclo-(Gly-Asp(OcHx)-Gly-Asp(OcHx)-3Am5ab)	100%	isolated yield (whole synthesis, from resin): 17%
Fmoc-Asp(OBut)-3Am5nb-Gly-Asp(OBut)-Gly-OH	–	step yield (coupling step): 81%

Some peptides are written in HELM: one residue between dots, names in brackets for other building blocks, links after the first $.
